This is an account of results in patent US11725036B2 (Sanofi, priority 2018, dated 2023).

The nature of this data set: general procedure: Fmoc solid-phase peptide synthesis; Rink amide AM resin (low loading 0.47 mmol/g; Novabiochem or ChemImpex); DIC 0.5M/Oxyma 1M in DMF. As to conditions: whole synthesis; for final HPLC purity: UV; for final HPLC purity / isolated yield: scale of the general procedure 0.1-0.2 mmol per batch.

For “Ac-L-E-G-R-E-K-V-R-A-K(Ac)-I-Aib-Aib-E-G-K(PEGDGA-PEGDGA-PEGDGA-gE-gE-gE-Palm)-S-T-F-S-Mly-R-A-K(Ac)-NH2”, under “TFA salt”, the isolated mass stood at 37 mg. Also, for the setting “trifluoroacetate salt”, the “final HPLC purity” value was 99%, the isolated yield amounted to 8% and the crude mass is reported as 220 mg.

In the case of “Ac-L-E-G-R-E-K-V-R-A-K(Ac)-I-Aib-Aib-E-G-K(TTDS-TTDS-TTDS-gE-gE-gE-Palm)-S-T-F-S-Mly-R-A-K(Ac)-NH2”, the isolated mass (TFA salt) was 428 mg. In addition, where the note is “trifluoroacetate salt”, the “final HPLC purity” value is reported as 99% and the isolated yield worked out at 17.5%. Further, the crude mass (scale 5 x 0.2 mmol, trifluoroacetate salt) worked out at 4300 mg.

In the case of “Ac-L-E-G-R-E-K-V-R-A-K(Ac)-I-Aib-Aib-E-G-K(TTDS-TTDS-TTDS-gE-gE-gE-Stea)-S-T-F-S-Mly-R-A-K(Ac)-NH2”, the isolated mass (TFA salt) worked out at 72 mg. In addition, for the setting “trifluoroacetate salt”, the “final HPLC purity” value is recorded as 98% and the isolated yield is on record as 3.6%. The crude mass (scale 0.4 mmol, trifluoroacetate salt) was found to be 720 mg.

Turning to “Ac-L-E-G-R-E-K-V-R-A-K(Ac)-I-Aib-Aib-E-G-K(TTDS-TTDS-TTDS-gE-gE-gE-Stea)-S-T-W-S-Aib-R-K-K(Ac)-NH2”, where the note is “trifluoroacetate salt”, the “final HPLC purity” value worked out at 99% and the isolated yield is listed as 4.5%. Also, the isolated mass (scale 0.1 mmol, trifluoroacetate salt) came out at 20 mg.

“Ac-L-E-G-R-E-K-V-R-A-K(Ac)-I-Aib-Aib-E-G-K(TTDS-TTDS-gE-gE-gE-Stea)-S-T-W-S-Aib-R-K-K(Ac)-NH2”: the isolated mass (TFA salt) came to 38 mg. For the same substance, under “trifluoroacetate salt”, the “final HPLC purity” value is recorded as 97%, the isolated yield came to 8% and the crude mass worked out at 240000 mg.
